Residue numbers refer to the chain shown, from its start. Results are given in words; binding and its absence hold for the method and conditions named. In cells and extracts the contact can be indirect. Some results given as binding are weak or reduced against the parent protein; the word gives no strength. Where a sequence is shown, tags or fusion partners need not be part of it.

Sequences of proteins named here, by UniProt entry; tags and fusion partners are left off.
UniProt O00560: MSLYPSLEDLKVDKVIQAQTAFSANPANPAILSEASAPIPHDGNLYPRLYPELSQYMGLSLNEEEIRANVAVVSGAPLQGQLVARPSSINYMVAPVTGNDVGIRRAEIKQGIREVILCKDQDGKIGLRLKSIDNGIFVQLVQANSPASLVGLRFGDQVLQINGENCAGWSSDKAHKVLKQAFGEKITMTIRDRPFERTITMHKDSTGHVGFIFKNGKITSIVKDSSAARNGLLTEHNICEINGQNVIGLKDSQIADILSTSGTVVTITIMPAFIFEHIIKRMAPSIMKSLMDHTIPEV

What all share (experiment): co-IP; 293FT cells cotransfected with TLR7 or TLR8 and V5-tagged UNC93B1 WT or variants (pcDNA 3.1); lysis in 50 mM Tris pH 7.4, 150 mM NaCl, 0.5% NP-40, 5 mM EDTA; V5-Trap agarose beads overnight at 4°C; western blot
In general terms: Immunoblotting shows a protein as a band on a membrane.

Experiment [1] deals with T1, V5-tagged human WT UNC93B1 (pcDNA 3.1, in 293FT cells) (human) (UniProt Q9H1C4).
T1 sequence: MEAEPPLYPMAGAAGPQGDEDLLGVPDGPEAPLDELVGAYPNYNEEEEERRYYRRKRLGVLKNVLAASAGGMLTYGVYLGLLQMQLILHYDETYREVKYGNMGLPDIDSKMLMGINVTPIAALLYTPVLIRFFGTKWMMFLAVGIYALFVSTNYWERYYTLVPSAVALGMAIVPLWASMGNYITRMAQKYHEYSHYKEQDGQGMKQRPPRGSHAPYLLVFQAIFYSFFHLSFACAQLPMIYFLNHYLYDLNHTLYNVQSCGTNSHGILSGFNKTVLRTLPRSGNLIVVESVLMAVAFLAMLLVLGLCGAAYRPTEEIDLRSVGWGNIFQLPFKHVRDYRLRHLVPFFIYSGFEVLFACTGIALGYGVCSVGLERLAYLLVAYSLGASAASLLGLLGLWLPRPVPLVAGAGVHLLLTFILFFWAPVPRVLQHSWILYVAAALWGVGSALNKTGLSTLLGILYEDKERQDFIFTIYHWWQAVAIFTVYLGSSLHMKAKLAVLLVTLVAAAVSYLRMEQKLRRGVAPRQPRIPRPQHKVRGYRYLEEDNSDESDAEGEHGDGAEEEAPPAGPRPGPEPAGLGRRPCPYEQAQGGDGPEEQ

Experiment [2] has as its target T2, V5-tagged UNC93B1 R525P (pcDNA 3.1, in 293FT cells) (human) (UniProt Q9H1C4).
T2 sequence: T1 sequence with R525P

Experiment [3] has as its target T3, V5-tagged UNC93B1 R466S (pcDNA 3.1, in 293FT cells) (human) (UniProt Q9H1C4).
T3 sequence: T1 sequence with R466S

Experiment [4] addresses T4, V5-tagged UNC93B1 L330R (pcDNA 3.1, in 293FT cells) (human) (UniProt Q9H1C4).
T4 sequence: T1 sequence with L330R

With syntenin-1 (from UniProt O00560 1-298), in experiment [1], the binding entry is “no binding”.

B1: TLR8 (transfected in 293FT cells) (receptor, UniProt Q9NR97 27-1041)
chain: EENFSRSYPCDEKKQNDSVIAECSNRRLQEVPQTVGKYVTELDLSDNFITHITNESFQGLQNLTKINLNHNPNVQHQNGNPGIQSNGLNITDGAFLNLKNLRELLLEDNQLPQIPSGLPESLTELSLIQNNIYNITKEGISRLINLKNLYLAWNCYFNKVCEKTNIEDGVFETLTNLELLSLSFNSLSHVPPKLPSSLRKLFLSNTQIKYISEEDFKGLINLTLLDLSGNCPRCFNAPFPCVPCDGGASINIDRFAFQNLTQLRYLNLSSTSLRKINAAWFKNMPHLKVLDLEFNYLVGEIASGAFLTMLPRLEILDLSFNYIKGSYPQHINISRNFSKLLSLRALHLRGYVFQELREDDFQPLMQLPNLSTINLGINFIKQIDFKLFQNFSNLEIIYLSENRISPLVKDTRQSYANSSSFQRHIRKRRSTDFEFDPHSNFYHFTRPLIKPQCAAYGKALDLSLNSIFFIGPNQFENLPDIACLNLSANSNAQVLSGTEFSAIPHVKYLDLTNNRLDFDNASALTELSDLEVLDLSYNSHYFRIAGVTHHLEFIQNFTNLKVLNLSHNNIYTLTDKYNLESKSLVELVFSGNRLDILWNDDDNRYISIFKGLKNLTRLDLSLNRLKHIPNEAFLNLPASLTELHINDNMLKFFNWTLLQQFPRLELLDLRGNKLLFLTDSLSDFTSSLRTLLLSHNRISHLPSGFLSEVSSLKHLDLSSNLLKTINKSALETKTTTKLSMLELHGNPFECTCDIGDFRRWMDEHLNVKIPRLVDVICASPGDQRGKSIVSLELTTCVSDVTAVILFFFTFFITTMVMLAALAHHLFYWDVWFIYNVCLAKVKGYRSLSTSQTFYDAYISYDTKDASVTDWVINELRYHLEESRDKNVLLCLEERDWDPGLAIIDNLMQSINQSKKTVFVLTKKYAKSWNFKTAFYLALQRLMDENMDVIIFILLEPVLQHSQYLRLRQRICKSSILQWPDNPKAEGLFWQTLRNVVLTENDSRYNNMYVDSIKQY
Take B1: the binding entry in experiment [2], in experiment [3], in experiment [1] and in experiment [4] was “binds” in each case.

B2: TLR7 (transfected in 293FT cells) (receptor, UniProt Q9NYK1 27-1049)
chain: ARWFPKTLPCDVTLDVPKNHVIVDCTDKHLTEIPGGIPTNTTNLTLTINHIPDISPASFHRLDHLVEIDFRCNCVPIPLGSKNNMCIKRLQIKPRSFSGLTYLKSLYLDGNQLLEIPQGLPPSLQLLSLEANNIFSIRKENLTELANIEILYLGQNCYYRNPCYVSYSIEKDAFLNLTKLKVLSLKDNNVTAVPTVLPSTLTELYLYNNMIAKIQEDDFNNLNQLQILDLSGNCPRCYNAPFPCAPCKNNSPLQIPVNAFDALTELKVLRLHSNSLQHVPPRWFKNINKLQELDLSQNFLAKEIGDAKFLHFLPSLIQLDLSFNFELQVYRASMNLSQAFSSLKSLKILRIRGYVFKELKSFNLSPLHNLQNLEVLDLGTNFIKIANLSMFKQFKRLKVIDLSVNKISPSGDSSEVGFCSNARTSVESYEPQVLEQLHYFRYDKYARSCRFKNKEASFMSVNESCYKYGQTLDLSKNSIFFVKSSDFQHLSFLKCLNLSGNLISQTLNGSEFQPLAELRYLDFSNNRLDLLHSTAFEELHKLEVLDISSNSHYFQSEGITHMLNFTKNLKVLQKLMMNDNDISSSTSRTMESESLRTLEFRGNHLDVLWREGDNRYLQLFKNLLKLEELDISKNSLSFLPSGVFDGMPPNLKNLSLAKNGLKSFSWKKLQCLKNLETLDLSHNQLTTVPERLSNCSRSLKNLILKNNQIRSLTKYFLQDAFQLRYLDLSSNKIQMIQKTSFPENVLNNLKMLLLHHNRFLCTCDAVWFVWWVNHTEVTIPYLATDVTCVGPGAHKGQSVISLDLYTCELDLTNLILFSLSISVSLFLMVMMTASHLYFWDVWYIYHFCKAKIKGYQRLISPDCCYDAFIVYDTKDPAVTEWVLAELVAKLEDPREKHFNLCLEERDWLPGQPVLENLSQSIQLSKKTVFVMTDKYAKTENFKIAFYLSHQRLMDEKVDVIILIFLEKPFQKSKFLQLRKRLCGSSVLEWPTNPQAHPYFWQCLKNALATDNHVAYSQVFKETV
B2: the binding result in experiment [2], in experiment [3], in experiment [1] and in experiment [4] was “binds” throughout.

Values taken from publication PMC11176256.
